This is an account of results in the supplement of paper PMC5836539.

Amino acid sequences for entries named in this document (tags omitted). A change or cut given only in a name is not applied to a line headed by its entry.
UniProt Q9UQ35: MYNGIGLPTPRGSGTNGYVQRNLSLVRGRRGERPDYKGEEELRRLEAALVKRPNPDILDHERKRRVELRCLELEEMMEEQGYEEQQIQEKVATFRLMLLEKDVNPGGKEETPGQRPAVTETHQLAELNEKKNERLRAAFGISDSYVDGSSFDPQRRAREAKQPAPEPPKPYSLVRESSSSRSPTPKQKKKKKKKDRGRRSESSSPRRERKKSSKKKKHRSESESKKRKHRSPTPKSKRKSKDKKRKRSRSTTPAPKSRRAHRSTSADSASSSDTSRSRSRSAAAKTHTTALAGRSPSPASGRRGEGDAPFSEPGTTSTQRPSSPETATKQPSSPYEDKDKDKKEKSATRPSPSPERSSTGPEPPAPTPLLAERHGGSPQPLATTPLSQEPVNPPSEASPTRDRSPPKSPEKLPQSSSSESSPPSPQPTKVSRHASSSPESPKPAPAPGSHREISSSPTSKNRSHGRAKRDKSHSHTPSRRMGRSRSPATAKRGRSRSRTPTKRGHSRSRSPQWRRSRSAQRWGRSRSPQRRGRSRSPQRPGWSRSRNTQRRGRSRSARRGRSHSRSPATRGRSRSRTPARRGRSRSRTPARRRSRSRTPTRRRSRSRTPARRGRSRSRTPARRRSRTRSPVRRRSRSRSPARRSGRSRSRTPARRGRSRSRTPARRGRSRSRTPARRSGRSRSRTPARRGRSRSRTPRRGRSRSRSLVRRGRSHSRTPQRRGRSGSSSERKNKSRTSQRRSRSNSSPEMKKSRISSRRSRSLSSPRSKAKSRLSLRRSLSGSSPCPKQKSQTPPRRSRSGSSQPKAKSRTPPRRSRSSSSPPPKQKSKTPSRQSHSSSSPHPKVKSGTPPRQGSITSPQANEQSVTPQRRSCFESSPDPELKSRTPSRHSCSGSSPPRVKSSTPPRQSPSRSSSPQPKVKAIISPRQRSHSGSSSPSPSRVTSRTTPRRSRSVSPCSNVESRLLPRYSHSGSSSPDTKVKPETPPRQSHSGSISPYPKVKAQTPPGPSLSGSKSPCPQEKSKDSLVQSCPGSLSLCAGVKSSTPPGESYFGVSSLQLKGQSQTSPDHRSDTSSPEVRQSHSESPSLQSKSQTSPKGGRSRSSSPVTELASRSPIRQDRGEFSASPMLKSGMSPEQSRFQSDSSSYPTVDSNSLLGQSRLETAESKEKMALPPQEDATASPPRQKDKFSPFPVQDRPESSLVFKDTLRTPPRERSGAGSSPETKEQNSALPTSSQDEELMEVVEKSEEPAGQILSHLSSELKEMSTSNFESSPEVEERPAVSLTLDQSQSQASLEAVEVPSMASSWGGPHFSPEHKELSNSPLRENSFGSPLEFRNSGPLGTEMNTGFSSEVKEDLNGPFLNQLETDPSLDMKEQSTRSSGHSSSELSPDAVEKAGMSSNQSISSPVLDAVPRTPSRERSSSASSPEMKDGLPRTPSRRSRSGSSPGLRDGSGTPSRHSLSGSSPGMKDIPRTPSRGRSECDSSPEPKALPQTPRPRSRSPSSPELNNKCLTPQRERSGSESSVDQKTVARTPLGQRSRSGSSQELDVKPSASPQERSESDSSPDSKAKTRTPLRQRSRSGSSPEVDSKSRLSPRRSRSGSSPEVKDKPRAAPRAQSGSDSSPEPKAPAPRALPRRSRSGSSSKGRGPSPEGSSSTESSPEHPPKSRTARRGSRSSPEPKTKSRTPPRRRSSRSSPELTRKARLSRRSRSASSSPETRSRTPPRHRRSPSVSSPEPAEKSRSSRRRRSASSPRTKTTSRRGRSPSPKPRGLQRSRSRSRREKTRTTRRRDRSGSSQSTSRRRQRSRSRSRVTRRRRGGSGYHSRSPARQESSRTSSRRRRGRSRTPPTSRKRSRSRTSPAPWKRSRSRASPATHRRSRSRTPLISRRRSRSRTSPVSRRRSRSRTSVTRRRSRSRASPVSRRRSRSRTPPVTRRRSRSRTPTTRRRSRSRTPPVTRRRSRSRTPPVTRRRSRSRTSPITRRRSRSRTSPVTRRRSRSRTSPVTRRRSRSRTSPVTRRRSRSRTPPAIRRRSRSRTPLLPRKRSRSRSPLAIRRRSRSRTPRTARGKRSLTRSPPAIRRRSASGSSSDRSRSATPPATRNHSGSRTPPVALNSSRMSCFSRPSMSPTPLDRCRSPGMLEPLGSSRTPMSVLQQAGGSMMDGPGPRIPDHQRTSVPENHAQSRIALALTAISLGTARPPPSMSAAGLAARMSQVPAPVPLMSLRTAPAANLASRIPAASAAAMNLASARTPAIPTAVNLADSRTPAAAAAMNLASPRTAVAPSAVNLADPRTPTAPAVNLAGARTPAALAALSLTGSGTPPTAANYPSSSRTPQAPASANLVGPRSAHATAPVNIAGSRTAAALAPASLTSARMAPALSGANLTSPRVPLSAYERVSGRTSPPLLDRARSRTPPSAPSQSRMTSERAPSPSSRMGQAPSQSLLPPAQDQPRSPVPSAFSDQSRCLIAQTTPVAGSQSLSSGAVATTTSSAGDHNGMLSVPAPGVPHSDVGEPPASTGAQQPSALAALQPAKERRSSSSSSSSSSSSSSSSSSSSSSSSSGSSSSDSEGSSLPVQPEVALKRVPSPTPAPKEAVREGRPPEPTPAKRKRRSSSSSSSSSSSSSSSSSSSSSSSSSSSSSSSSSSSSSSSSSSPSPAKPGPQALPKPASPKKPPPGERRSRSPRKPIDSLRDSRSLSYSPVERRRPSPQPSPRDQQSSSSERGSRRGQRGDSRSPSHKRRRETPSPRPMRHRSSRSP
UniProt Q8IYB3: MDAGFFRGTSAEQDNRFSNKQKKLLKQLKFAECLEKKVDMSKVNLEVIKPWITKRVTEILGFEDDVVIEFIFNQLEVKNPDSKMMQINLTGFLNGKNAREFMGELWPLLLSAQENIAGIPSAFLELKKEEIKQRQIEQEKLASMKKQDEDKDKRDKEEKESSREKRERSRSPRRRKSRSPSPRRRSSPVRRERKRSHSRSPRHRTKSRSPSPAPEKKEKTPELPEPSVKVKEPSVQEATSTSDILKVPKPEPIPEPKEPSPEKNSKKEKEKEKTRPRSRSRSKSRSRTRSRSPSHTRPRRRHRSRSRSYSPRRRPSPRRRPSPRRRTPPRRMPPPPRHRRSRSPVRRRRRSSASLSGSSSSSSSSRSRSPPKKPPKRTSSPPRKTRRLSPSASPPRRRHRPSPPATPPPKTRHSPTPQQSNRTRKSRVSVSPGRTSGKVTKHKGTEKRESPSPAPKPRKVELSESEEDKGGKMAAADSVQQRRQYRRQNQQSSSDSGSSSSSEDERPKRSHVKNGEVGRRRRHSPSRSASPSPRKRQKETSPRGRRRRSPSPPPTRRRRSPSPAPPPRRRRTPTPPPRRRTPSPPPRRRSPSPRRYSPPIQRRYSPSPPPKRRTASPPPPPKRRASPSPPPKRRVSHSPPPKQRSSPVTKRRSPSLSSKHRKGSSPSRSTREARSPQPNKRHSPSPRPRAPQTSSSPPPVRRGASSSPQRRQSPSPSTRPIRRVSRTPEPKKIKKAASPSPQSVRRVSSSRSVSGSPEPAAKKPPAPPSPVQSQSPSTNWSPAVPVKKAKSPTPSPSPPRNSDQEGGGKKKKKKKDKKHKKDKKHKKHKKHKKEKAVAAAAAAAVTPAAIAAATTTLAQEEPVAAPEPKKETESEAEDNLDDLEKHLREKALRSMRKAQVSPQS
UniProt O43294, whole entry, looked up: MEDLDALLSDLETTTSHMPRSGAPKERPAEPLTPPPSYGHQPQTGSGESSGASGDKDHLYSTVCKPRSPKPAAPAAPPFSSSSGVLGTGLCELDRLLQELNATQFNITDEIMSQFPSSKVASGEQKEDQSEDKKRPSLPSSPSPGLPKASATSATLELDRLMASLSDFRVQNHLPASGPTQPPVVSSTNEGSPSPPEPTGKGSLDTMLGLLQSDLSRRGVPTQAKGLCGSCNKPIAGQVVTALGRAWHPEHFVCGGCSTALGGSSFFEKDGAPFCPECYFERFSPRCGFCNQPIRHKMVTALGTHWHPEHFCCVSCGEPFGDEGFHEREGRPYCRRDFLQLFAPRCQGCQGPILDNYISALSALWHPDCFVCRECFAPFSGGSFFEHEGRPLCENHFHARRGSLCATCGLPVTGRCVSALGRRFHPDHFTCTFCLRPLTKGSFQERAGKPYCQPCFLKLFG
UniProt Q86XP3: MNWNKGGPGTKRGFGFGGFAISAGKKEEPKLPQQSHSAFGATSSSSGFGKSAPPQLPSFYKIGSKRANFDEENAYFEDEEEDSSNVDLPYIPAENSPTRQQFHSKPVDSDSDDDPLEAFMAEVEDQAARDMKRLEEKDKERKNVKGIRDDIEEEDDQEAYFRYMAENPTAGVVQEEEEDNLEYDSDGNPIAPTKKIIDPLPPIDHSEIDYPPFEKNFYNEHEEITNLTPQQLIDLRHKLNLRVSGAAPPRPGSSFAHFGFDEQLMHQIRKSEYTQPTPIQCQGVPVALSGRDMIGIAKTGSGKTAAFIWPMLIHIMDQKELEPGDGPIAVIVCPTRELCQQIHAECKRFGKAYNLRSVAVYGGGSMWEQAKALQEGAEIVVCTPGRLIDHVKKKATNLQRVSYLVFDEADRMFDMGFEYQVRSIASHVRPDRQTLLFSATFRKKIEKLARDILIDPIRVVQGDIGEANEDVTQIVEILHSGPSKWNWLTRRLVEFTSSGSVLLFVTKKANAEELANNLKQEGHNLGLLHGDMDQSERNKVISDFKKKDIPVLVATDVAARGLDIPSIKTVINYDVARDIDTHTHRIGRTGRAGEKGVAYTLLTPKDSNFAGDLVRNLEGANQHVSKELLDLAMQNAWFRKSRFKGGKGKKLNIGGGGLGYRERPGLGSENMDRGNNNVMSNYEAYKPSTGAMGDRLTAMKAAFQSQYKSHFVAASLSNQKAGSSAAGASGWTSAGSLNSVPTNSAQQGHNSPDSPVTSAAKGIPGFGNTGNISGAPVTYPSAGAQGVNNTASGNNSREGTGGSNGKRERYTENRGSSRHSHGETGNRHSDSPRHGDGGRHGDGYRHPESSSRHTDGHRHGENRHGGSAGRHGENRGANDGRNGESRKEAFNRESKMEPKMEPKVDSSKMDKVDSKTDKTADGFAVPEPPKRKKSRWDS
UniProt Q15678: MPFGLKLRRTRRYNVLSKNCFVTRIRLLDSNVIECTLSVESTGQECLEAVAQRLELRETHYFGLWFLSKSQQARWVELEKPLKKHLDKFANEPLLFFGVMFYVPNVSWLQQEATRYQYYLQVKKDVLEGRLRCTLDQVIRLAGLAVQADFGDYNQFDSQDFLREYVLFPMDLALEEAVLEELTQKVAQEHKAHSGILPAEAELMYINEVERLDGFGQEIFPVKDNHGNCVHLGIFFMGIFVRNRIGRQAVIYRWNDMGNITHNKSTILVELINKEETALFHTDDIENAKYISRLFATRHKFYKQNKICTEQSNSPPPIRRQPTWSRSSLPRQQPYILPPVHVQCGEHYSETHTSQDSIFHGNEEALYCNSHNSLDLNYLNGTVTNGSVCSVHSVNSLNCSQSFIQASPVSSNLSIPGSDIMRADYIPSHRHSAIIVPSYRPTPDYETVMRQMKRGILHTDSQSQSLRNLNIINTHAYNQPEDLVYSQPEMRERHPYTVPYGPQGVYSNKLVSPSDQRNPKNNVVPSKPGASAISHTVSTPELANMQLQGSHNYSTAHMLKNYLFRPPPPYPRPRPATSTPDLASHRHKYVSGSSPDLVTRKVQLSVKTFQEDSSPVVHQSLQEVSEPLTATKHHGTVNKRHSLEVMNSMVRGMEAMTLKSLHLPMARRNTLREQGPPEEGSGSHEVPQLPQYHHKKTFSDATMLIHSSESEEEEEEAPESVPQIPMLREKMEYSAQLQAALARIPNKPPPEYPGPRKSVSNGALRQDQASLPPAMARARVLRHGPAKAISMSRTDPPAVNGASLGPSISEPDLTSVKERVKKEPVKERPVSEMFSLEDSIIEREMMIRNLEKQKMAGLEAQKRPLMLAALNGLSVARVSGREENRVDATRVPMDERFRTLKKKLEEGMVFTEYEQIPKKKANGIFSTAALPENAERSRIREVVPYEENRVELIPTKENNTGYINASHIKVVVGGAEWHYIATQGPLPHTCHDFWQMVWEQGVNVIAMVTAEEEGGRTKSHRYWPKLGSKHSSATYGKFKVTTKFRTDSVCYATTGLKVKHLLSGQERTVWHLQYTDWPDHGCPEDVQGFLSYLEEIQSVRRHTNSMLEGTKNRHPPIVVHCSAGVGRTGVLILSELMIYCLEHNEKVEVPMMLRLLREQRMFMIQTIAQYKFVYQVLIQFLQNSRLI
UniProt Q07955, whole entry, looked up: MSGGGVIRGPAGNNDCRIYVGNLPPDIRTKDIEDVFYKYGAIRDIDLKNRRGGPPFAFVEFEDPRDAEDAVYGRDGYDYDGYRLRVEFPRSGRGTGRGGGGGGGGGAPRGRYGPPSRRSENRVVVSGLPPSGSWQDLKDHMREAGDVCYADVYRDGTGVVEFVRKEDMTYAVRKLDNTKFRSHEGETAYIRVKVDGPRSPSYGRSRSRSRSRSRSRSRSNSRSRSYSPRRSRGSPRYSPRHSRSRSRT

± gives the standard deviation of the averaged measurements. Repeats in this data set agree poorly, so a single value says little.

Compound in the test: CC[C@@H](C)Nc1cc(C(=O)N[C@H]2C[C@H]3CC[C@@H](C2)N3c2ccc(C(=O)C3CC3)cn2)c(C)cc1C(N)=O [XL888]
The test can be described thus: phosphopeptide melting temperature shift (XL888 minus DMSO); higher = stabilised by drug treatment. Conditions: 100 µM; treatment time 2 h; layout: intact cells; SK-Mel 28. The protocol:
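Phospho-TPP in intact SK-Mel 28 cells treated with 100 uM XL888 or DMSO for 2 h, heated at 10 temperatures (37-67 C) for 3 min, soluble fraction TMT10plex-labelled and TiO2 phospho-enriched. Melting curves were fitted per phosphopeptide; the value is the melting point difference (drug minus vehicle) in each of two biological replicates.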
As to “NUP50 phosphosite_330 (phosphosite position: 330) (UniProt Q9UKX7)”, the “phosphopeptide melting temperature shift” value amounted to 0.169 °C.

For “SRRM2 phosphosite_1404 (phosphosite position: 1404) (UniProt Q9UQ35)”, the “phosphopeptide melting temperature shift” value came out at 2.77 °C. “UniProt O75592-2_phosphosite_2649 (phosphosite position: 2649)”: the “phosphopeptide melting temperature shift” value worked out at 1.96 ± 0.55 °C. In the case of “SRRM1 phosphosite_872 (phosphosite position: 872) (UniProt Q8IYB3)” it was -0.028 ± 0.042 °C; in that of “PRPF4B phosphosite_292 (phosphosite position: 292) (UniProt Q13523)”, -0.245 °C.

Regarding “UniProt Q6GYQ0-3_phosphosite_908 (phosphosite position: 908)”, the “phosphopeptide melting temperature shift” value worked out at 1.12 °C. In the case of “TCP1 phosphosite_544 (phosphosite position: 544) (UniProt P17987)” it was 0.922 °C; in that of “IWS1 phosphosite_400 (phosphosite position: 400) (UniProt Q96ST2)”, 2.77 ± 1.6 °C. Regarding “UniProt O43294-2_phosphosite_124 (phosphosite position: 124)”, the “phosphopeptide melting temperature shift” value came out at 2.43 °C. Turning to “UniProt Q8N122-3_phosphosite_705 (phosphosite position: 705)”, the “phosphopeptide melting temperature shift” value came out at 1.07 ± 1.7 °C.

On to “SRRM2 phosphosite_2706 (phosphosite position: 2706) (UniProt Q9UQ35)”, for which the “phosphopeptide melting temperature shift” value was found to be 2.46 °C. In the case of “UniProt Q9BXW6-4_phosphosite_117 (phosphosite position: 117)” it was 2.02 °C. In the case of “NMD3 phosphosite_25 (phosphosite position: 25) (UniProt Q96D46)” it was 1.94 °C. For “UniProt Q92538-3_phosphosite_349 (phosphosite position: 349)”, the “phosphopeptide melting temperature shift” value turned out to be 0.643 °C. Regarding “SRRM1 phosphosite_713 (phosphosite position: 713) (UniProt Q8IYB3)”, the “phosphopeptide melting temperature shift” value is -3.02 °C. In the case of “PPP1R7 phosphosite_47 (phosphosite position: 47) (UniProt Q15435)” it was 1.77 ± 0.3 °C; in that of “LMNA phosphosite_392 (phosphosite position: 392) (UniProt P02545)”, 0.993 ± 0.2 °C. Turning to “RPRD1B phosphosite_166 (phosphosite position: 166) (UniProt Q9NQG5)”, the “phosphopeptide melting temperature shift” value is -0.104 ± 0.39 °C. In the case of “GTF2F1 phosphosite_446 (phosphosite position: 446) (UniProt P35269)” it was 0.641 °C; in that of “UniProt Q5T4S7-3_phosphosite_2733 (phosphosite position: 2733)”, 1.07 °C; in that of “SRRM1 phosphosite_583 (phosphosite position: 583) (UniProt Q8IYB3)”, 2.69 °C. For the target “NAP1L4 phosphosite_54 (phosphosite position: 54) (UniProt Q99733)”, the “phosphopeptide melting temperature shift” value is -1.08 °C. In the case of “UniProt O75909-1_phosphosite_329 (phosphosite position: 329)” it was 1.19 ± 0.043 °C; in that of “UniProt Q8WWM7-6_phosphosite_559 (phosphosite position: 559)”, 0.842 °C.

As to “UniProt P46937-5_phosphosite_127 (phosphosite position: 127)”, the “phosphopeptide melting temperature shift” value amounted to 2.51 ± 0.54 °C. In the case of “DCK phosphosite_74 (phosphosite position: 74) (UniProt P27707)” it was 1.22 °C; in that of “DDX42 phosphosite_109 (phosphosite position: 109) (UniProt Q86XP3)”, 0.4 ± 0.64 °C. Take “UniProt Q9BV36_phosphosite_201 (phosphosite position: 201)”: the “phosphopeptide melting temperature shift” value is -3.71 ± 0.28 °C.

“UniProt P18858-2_phosphosite_141 (phosphosite position: 141)”: the “phosphopeptide melting temperature shift” value is -0.196 °C.

Take “HERC2 phosphosite_2928 (phosphosite position: 2928) (UniProt O95714)”: the “phosphopeptide melting temperature shift” value was 1.55 ± 0.23 °C. As to “MICAL3 phosphosite_1310 (phosphosite position: 1310) (UniProt Q7RTP6)”, the “phosphopeptide melting temperature shift” value was found to be 0.77 °C. Turning to “PAK2 phosphosite_141 (phosphosite position: 141) (UniProt Q13177)”, the “phosphopeptide melting temperature shift” value worked out at 0.989 ± 0.6 °C.

Take “SRRM2 phosphosite_436 (phosphosite position: 436) (UniProt Q9UQ35)”: the “phosphopeptide melting temperature shift” value was 2.35 °C.

Regarding “SRRM2 phosphosite_1731 (phosphosite position: 1731) (UniProt Q9UQ35)”, the “phosphopeptide melting temperature shift” value amounted to 5.91 °C.

As for “UniProt P41227-2_phosphosite_190 (phosphosite position: 190)”, the “phosphopeptide melting temperature shift” value is -0.177 °C.

Regarding “UniProt A3KN83-3_phosphosite_687 (phosphosite position: 687)”, the “phosphopeptide melting temperature shift” value was determined as 1.64 ± 1.8 °C.

Consider “UniProt Q9UHR5-2_phosphosite_22 (phosphosite position: 22)”, for which the “phosphopeptide melting temperature shift” value was determined as 5.4 ± 0.15 °C. In the case of “PTPN14 phosphosite_314 (phosphosite position: 314) (UniProt Q15678)” it was 1.92 °C; in that of “UniProt P27987-2_phosphosite_204 (phosphosite position: 204)”, 1.04 °C. “UniProt P55196-3_phosphosite_1184 (phosphosite position: 1184)”: the “phosphopeptide melting temperature shift” value is 0.678 ± 0.4 °C. In the case of “UniProt Q8WX93-4_phosphosite_182 (phosphosite position: 182)”, the “phosphopeptide melting temperature shift” value amounted to 0.383 °C. As to “UniProt Q9NVN3-4_phosphosite_228 (phosphosite position: 228)”, the “phosphopeptide melting temperature shift” value was 0.72 °C. In the case of “IRS2 phosphosite_1174 (phosphosite position: 1174) (UniProt Q9Y4H2)” it was 1.42 ± 2.6 °C. As for “NPM1 phosphosite_88 (phosphosite position: 88) (UniProt P06748)”, the “phosphopeptide melting temperature shift” value was -4.34 °C. In the case of “RECQL phosphosite_608 (phosphosite position: 608) (UniProt P46063)” it was 0.464 ± 0.81 °C.

With “UniProt P56693_phosphosite_240 (phosphosite position: 240)”, the “phosphopeptide melting temperature shift” value was found to be 2.18 ± 0.55 °C. As for “UniProt Q15149_phosphosite_1435 (phosphosite position: 1435)”, the “phosphopeptide melting temperature shift” value was 0.966 ± 0.3 °C. Take “UniProt Q14676-3_phosphosite_376 (phosphosite position: 376)”: the “phosphopeptide melting temperature shift” value is 4.82 ± 1.1 °C.

“KCNAB2 phosphosite_111 (phosphosite position: 111) (UniProt Q13303)”: the “phosphopeptide melting temperature shift” value is -2.09 °C.

“PLEKHF1 phosphosite_227 (phosphosite position: 227) (UniProt Q96S99)”: the “phosphopeptide melting temperature shift” value stood at 3.72 °C. On to “PPIG phosphosite_744 (phosphosite position: 744) (UniProt Q13427)”, for which the “phosphopeptide melting temperature shift” value stood at 2.07 ± 1.5 °C. For the target “PRMT3 phosphosite_27 (phosphosite position: 27) (UniProt O60678)”, the “phosphopeptide melting temperature shift” value was determined as 1.94 ± 1.4 °C. In the case of “UniProt Q8WYL5-4_phosphosite_209 (phosphosite position: 209)”, the “phosphopeptide melting temperature shift” value amounted to 2.21 °C. Regarding “UniProt Q01804-5_phosphosite_958 (phosphosite position: 958)”, the “phosphopeptide melting temperature shift” value is 1.46 °C. In the case of “UniProt P55196-3_phosphosite_1698 (phosphosite position: 1698)” it was 0.159 °C; in that of “UniProt Q8WXE1-5_phosphosite_97 (phosphosite position: 97)”, 1.45 °C.

For the target “UniProt Q9H2G2-2_phosphosite_189 (phosphosite position: 189)”, the “phosphopeptide melting temperature shift” value worked out at 3.86 °C. In the case of “UniProt Q16655_phosphosite_84 (phosphosite position: 84)” it was 3.24 °C. In the case of “TP53BP1 phosphosite_659 (phosphosite position: 659) (UniProt Q12888)”, the “phosphopeptide melting temperature shift” value was found to be 0.284 °C. As for “SRRM2 phosphosite_1413 (phosphosite position: 1413) (UniProt Q9UQ35)”, the “phosphopeptide melting temperature shift” value stood at 2.77 °C. In the case of “UniProt Q9NRA8-2_phosphosite_389 (phosphosite position: 389)” it was 1.49 °C; in that of “UniProt Q58WW2-4_phosphosite_703 (phosphosite position: 703)”, 3.22 °C.

As to “UniProt Q8WUI4-3_phosphosite_368 (phosphosite position: 368)”, the “phosphopeptide melting temperature shift” value is -0.905 °C. In the case of “UniProt Q63ZY3-3_phosphosite_375 (phosphosite position: 375)” it was 1.46 °C; in that of “UniProt O15164-2_phosphosite_994 (phosphosite position: 994)”, -0.845 °C. Consider “TP53BP1 phosphosite_1114 (phosphosite position: 1114) (UniProt Q12888)”, for which the “phosphopeptide melting temperature shift” value stood at 3.64 ± 0.98 °C. Consider “UniProt Q07955_phosphosite_234 (phosphosite position: 234)”, for which the “phosphopeptide melting temperature shift” value turned out to be 0.626 °C.
